Experimental data taken from PMC7819943, “Rice protein-binding microarrays: a tool to detect cis-acting elements near promoter regions in rice”.
The other results are listed elsewhere or left out.

By UniProt entry, the sequences of proteins in these tests, tags left out.
UniProt Q0JBA9, entry or part of it: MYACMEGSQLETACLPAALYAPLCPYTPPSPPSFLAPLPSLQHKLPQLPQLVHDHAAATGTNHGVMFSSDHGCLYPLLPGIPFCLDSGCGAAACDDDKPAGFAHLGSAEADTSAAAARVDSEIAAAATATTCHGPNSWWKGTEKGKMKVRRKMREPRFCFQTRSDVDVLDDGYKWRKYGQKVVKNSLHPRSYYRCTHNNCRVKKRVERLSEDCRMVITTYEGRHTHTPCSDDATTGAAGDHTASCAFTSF

Each sequence was assayed against OsWRKY34 (Oryza sativa, UniProt Q0JBA9 1-250) (assay: protein-binding microarray (RPBM); PBS, 2% BSA, 51.3 ng/ul salmon testes DNA, 50 uM zinc acetate, 200 nM TF, 25 C, 1 h; high values mean tight binding). Conditions: protein: recombinant; tags: N-terminal polyhistidine and DsRed monomer fusion (pET32a); label: CyDye5-dUTP incorporated in the synthesized complementary strand; 3' TTTTT single-stranded linker to array surface; dsDNA, one strand shown.
Outline: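 Ni–NTA purification followed expression in E. coli BL21-CodonPlus of transcription factors fused N-terminally to a polyhistidine tag and DsRed. At 200 nM in PBS with 2% BSA, salmon testes DNA and 50 µM zinc acetate, the protein was incubated for 1 h at 25 °C with a custom Agilent array that had been primer-extended with Cy5-dUTP and blocked with 2% BSA. After washing, the array was read on an Axon 4000B scanner. The binding signal is per-feature fluorescence intensity in arbitrary units.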

Row | Sequence | binding signal
1 | AGCCTAGTACTACCTTCGTCCTAAATTAATGGTCGCTTTGCGGAGTCACCTAGTGCAG | 8870 fluorescence intensity (a.u.)
2 | CAAAGTCGTGATCTATAGCCGTCCTCTTTCCGTTTGAATTCGGAGTCACCTAGTGCAG | 8770 fluorescence intensity (a.u.)
3 | GATTGGTTGTTTGTTCTGTTTTGGACATGCTTGTTAATTACGGAGTCACCTAGTGCAG | 17100 fluorescence intensity (a.u.)
4 | TAGTTTTCGCTTATTTGCAGCTAAATCCTCGGGTCCACATCGGAGTCACCTAGTGCAG | 8900 fluorescence intensity (a.u.)
5 | AATGTTATGGGTTGGGACTGCTCTAAGACCGGTAGCTAGCCGGAGTCACCTAGTGCAG | 9390 fluorescence intensity (a.u.)
6 | TCTTCTTGAATTCTTGACTGCTTATCAGCTTATGTACTACCGGAGTCACCTAGTGCAG | 9340 fluorescence intensity (a.u.)
7 | GTTTTTTGTGTATACAAATTTCTTGTTGCTTTTGAACATCCGGAGTCACCTAGTGCAG | 9930 fluorescence intensity (a.u.)
8 | GCCCATCGCCACCGTCCACCGATCCAGCTGGCCGATCCTGCGGAGTCACCTAGTGCAG | 9040 fluorescence intensity (a.u.)
9 | CATTGGACTTTTGTTGGGCTATAGGTGTGGTTTTGATGGGCGGAGTCACCTAGTGCAG | 11300 fluorescence intensity (a.u.)
10 | AACCAGCCATATTATTATTTTGCTAATACACCGTATGACGCGGAGTCACCTAGTGCAG | 8130 fluorescence intensity (a.u.)
11 | TCCATTTGATTACTCGTAACCATCTCCATTCTTTCATCCTCGGAGTCACCTAGTGCAG | 8160 fluorescence intensity (a.u.)
12 | CCTGTTTCTCTCCTAGAATATCACGCAAACTCAACCCCACCGGAGTCACCTAGTGCAG | 9620 fluorescence intensity (a.u.)
13 | TCACCGCTCCTTGCTTACAATGTTGATACACCACCTTACACGGAGTCACCTAGTGCAG | 9300 fluorescence intensity (a.u.)
14 | TGTTGCATTGATCGCATATACACGTAGCATCCGATAAATTCGGAGTCACCTAGTGCAG | 9000 fluorescence intensity (a.u.)
15 | CGAATTCTGTTATTCCCTTTGTAATATGTGGTTTTCACTACGGAGTCACCTAGTGCAG | 8210 fluorescence intensity (a.u.)
16 | AAGTTTTCGCGTCCAACTTTCATCGTTCGTCTTATTTGAACGGAGTCACCTAGTGCAG | 10600 fluorescence intensity (a.u.)
17 | CTCTCCTCCTTATCTCCAGTTCTCCACCCACCCACCCTCACGGAGTCACCTAGTGCAG | 9290 fluorescence intensity (a.u.)
18 | GAATTTTTTTTGCTTTCCGAAAAGAAACCCTGCTTATACCCGGAGTCACCTAGTGCAG | 8930 fluorescence intensity (a.u.)
19 | GGTATCAATGTCCAACGTTTGACTATCTGTCTTATTTGAACGGAGTCACCTAGTGCAG | 10800 fluorescence intensity (a.u.)
20 | CGCGATCCATCCATCCACCCGGCTCCCCACACACGAGAAACGGAGTCACCTAGTGCAG | 8980 fluorescence intensity (a.u.)
21 | GGTATATTTCATTATGTTGCATCTTATATTTTTCTTTCCACGGAGTCACCTAGTGCAG | 8510 fluorescence intensity (a.u.)

Exported tab-delimited: entries from further up.
Row	Sequence	binding signal
8	GCCCATCGCCACCGTCCACCGATCCAGCTGGCCGATCCTGCGGAGTCACCTAGTGCAG	9040 fluorescence intensity (a.u.)
9	CATTGGACTTTTGTTGGGCTATAGGTGTGGTTTTGATGGGCGGAGTCACCTAGTGCAG	11300 fluorescence intensity (a.u.)
10	AACCAGCCATATTATTATTTTGCTAATACACCGTATGACGCGGAGTCACCTAGTGCAG	8130 fluorescence intensity (a.u.)
11	TCCATTTGATTACTCGTAACCATCTCCATTCTTTCATCCTCGGAGTCACCTAGTGCAG	8160 fluorescence intensity (a.u.)
12	CCTGTTTCTCTCCTAGAATATCACGCAAACTCAACCCCACCGGAGTCACCTAGTGCAG	9620 fluorescence intensity (a.u.)
13	TCACCGCTCCTTGCTTACAATGTTGATACACCACCTTACACGGAGTCACCTAGTGCAG	9300 fluorescence intensity (a.u.)
14	TGTTGCATTGATCGCATATACACGTAGCATCCGATAAATTCGGAGTCACCTAGTGCAG	9000 fluorescence intensity (a.u.)
15	CGAATTCTGTTATTCCCTTTGTAATATGTGGTTTTCACTACGGAGTCACCTAGTGCAG	8210 fluorescence intensity (a.u.)
16	AAGTTTTCGCGTCCAACTTTCATCGTTCGTCTTATTTGAACGGAGTCACCTAGTGCAG	10600 fluorescence intensity (a.u.)
17	CTCTCCTCCTTATCTCCAGTTCTCCACCCACCCACCCTCACGGAGTCACCTAGTGCAG	9290 fluorescence intensity (a.u.)
18	GAATTTTTTTTGCTTTCCGAAAAGAAACCCTGCTTATACCCGGAGTCACCTAGTGCAG	8930 fluorescence intensity (a.u.)
19	GGTATCAATGTCCAACGTTTGACTATCTGTCTTATTTGAACGGAGTCACCTAGTGCAG	10800 fluorescence intensity (a.u.)

Going on with the list:

Row | Sequence | binding signal
22 | CTACGTTACACTGTGCGTGGCTTGTCTCTGCTCTATATGTCGGAGTCACCTAGTGCAG | 8590 fluorescence intensity (a.u.)
23 | TATCCTCCTGTGACCTCTCACCTATCGCAAGAACCCCAACCGGAGTCACCTAGTGCAG | 9630 fluorescence intensity (a.u.)
24 | ACTCACTGTTGCCTGTTGGTTTGTTGTCAGTAGCGCTAGGCGGAGTCACCTAGTGCAG | 8370 fluorescence intensity (a.u.)
25 | TCGTAATCGACACACACTTCCACCACAGCCACCTACCATTCGGAGTCACCTAGTGCAG | 8900 fluorescence intensity (a.u.)
26 | GCACCATCCTCCTCGTCGGCCGTTGACGTCTCCGATTCCACGGAGTCACCTAGTGCAG | 8820 fluorescence intensity (a.u.)
27 | AAACACCAGCGCGGCCCTCGCCCTCGCCGTCGCCATTTCCCGGAGTCACCTAGTGCAG | 8520 fluorescence intensity (a.u.)
28 | CCTGCTCCCGCCACGCCATTGCATCCATCCAATATCCATGCGGAGTCACCTAGTGCAG | 8520 fluorescence intensity (a.u.)
29 | TTAATCATCGCTTTACTGTTTTGTTCCTGAACTCTGTAGCCGGAGTCACCTAGTGCAG | 8170 fluorescence intensity (a.u.)
30 | ATTGTATTTCTATATAGACTCTGCCTTTTCTTTTTCTCCGCGGAGTCACCTAGTGCAG | 9630 fluorescence intensity (a.u.)
31 | GTGTCATACCGCTGCTCCTTCTCTTTGCCTATTGCTCCTCCGGAGTCACCTAGTGCAG | 10200 fluorescence intensity (a.u.)
32 | AAAACCGTTTCTCCATCTTCCGATTTGCTCGCGCCGGTTGCGGAGTCACCTAGTGCAG | 8060 fluorescence intensity (a.u.)
33 | AACACACGCACAACATTTTTACGATGCTAGCAAACATTCTCGGAGTCACCTAGTGCAG | 8200 fluorescence intensity (a.u.)
34 | ATAAATACACCCAAACCCTAACCCTAACCCTAGGATTCATCGGAGTCACCTAGTGCAG | 8420 fluorescence intensity (a.u.)
35 | GCCTTTCATCACCCTTTACAAGTTTGACCTTTTCATGTCACGGAGTCACCTAGTGCAG | 13600 fluorescence intensity (a.u.)
36 | GCCTACATATTCCCAACATCCAACTCTTCGTTTTTCCCATCGGAGTCACCTAGTGCAG | 12300 fluorescence intensity (a.u.)
37 | ACATGCCAGCTCCAACACACGAGCTACAACCCGGTAATTACGGAGTCACCTAGTGCAG | 9970 fluorescence intensity (a.u.)
38 | CGTGTACGCGTTGTTGGTGCCGGAGGCGTTCTTCCGCGACCGGAGTCACCTAGTGCAG | 8440 fluorescence intensity (a.u.)
39 | ATTCCTAGCTACTCCTACTACCACTGACTTGTTGGTTCCACGGAGTCACCTAGTGCAG | 8030 fluorescence intensity (a.u.)
40 | ACCTTGCGAGCAACACATGTCCTCCTCGCTATTGTACTCCCGGAGTCACCTAGTGCAG | 8090 fluorescence intensity (a.u.)
41 | TATGCATGTAGCCACCTTGAATGCCTCTAATTTCATGTTTCGGAGTCACCTAGTGCAG | 8510 fluorescence intensity (a.u.)
42 | GGGGATTTCGAGTTGTGATGGGTTGAGGTTGATTAGATGCCGGAGTCACCTAGTGCAG | 15800 fluorescence intensity (a.u.)
